At least one read-out could not be matched to a standard name with certainty. Bridge positions count the residues as written; N and C are the ends. Square brackets hold non-standard residues; d marks the D form. Peptide text beside a SMILES is read from it. PEG6 = NCCOCCOCCOCCOCCOCCOCCC(=O)O
How the values were obtained:
[1] = Solubilization of SWCNTs by cyclic β-sheet block copolypeptides with sonication; type: physicochemical
[2] = Solubilization of SWCNTs by linear β-sheet block copolypeptide with sonication; type: physicochemical; conditions: 5 μM peptide, 5 μg SWCNTs
Procedure: First, it was confirmed whether this potential β-sheet forming peptide can bind to and then solubilize SWCNTs in pure water. The arc-produced SWCNTs were suspended in tetrahydrofuran (THF) and equal amounts of the SWCNTs (5 μg) were added into microcentrifuge tubes. After THF evaporation, the block copolypeptide solution (0.3 mL) was added and the mixture was subjected to sonication at room temperature for 15 min.
Next, the influence of ionic strength on the peptide/SWCNT hybrid formation was investigated. The β-sheet contents of the block copolypeptide solution increased with increasing NaCl concentration, and the increase reached a plateau at a salt concentration of around 50-60 mM (see FIG. 5).
In contrast, the granules became smaller when salt was added (50 mM) and the solution was subjected to a vortex (the right image in a) of FIG. 3). Upon soniciation of both mixtures, a significant difference was evident.
An investigation was made as to whether preassembled β-sheet nanoribbons could be disintegrated and used to solubilize CNTs in the presence of SWCNTs (path 4 or path 5 in FIG. 1).

Compound | solubilization of SWCNTs ([1]; 5 μg SWCNTs, 20 mM aqueous salt solution) | solubilization of SWCNTs ([1]; 5 μg SWCNTs, 150 mM aqueous salt solution, sonication) | solubilization of SWCNTs ([1]; 10 μM peptide, 150 mM KF salt solution, sonication) | solubilization of SWCNTs ([2]; 50 mM salt, sonication) | solubilization of SWCNTs ([2]; pure water) | solubilization of SWCNTs ([2]; pure water, listed as peptide)
C[C@@H]1NC(=O)[C@H](CCC(N)=O)NC(=O)[C@H](CCCNC(=N)N)NC(=O)[C@H]([C@@H](C)O)NC(=O)CCOCCOCCOCCOCCOCCOCCNC(=O)[C@H](Cc2ccccc2)NC(=O)[C@H](CCC(=O)O)NC(=O)[C@H](Cc2ccccc2)NC(=O)[C@H](CCCCN)NC(=O)[C@H](Cc2ccccc2)NC(=O)[C@H](CCC(=O)O)NC(=O)[C@H](Cc2ccccc2)NC(=O)[C@H](CCCCN)NC(=O)[C@H](Cc2ccccc2)NC(=O)CSC[C@@H](C(N)=O)NC(=O)CCOCCOCCOCCOCCOCCOCCNC(=O)[C@H](CCCNC(=N)N)NC(=O)[C@H](CCCNC(=N)N)NC(=O)[C@H](Cc2c[nH]c3ccccc23)NC(=O)[C@H](CCCNC(=N)N)NC(=O)[C@H](CCCNC(=N)N)NC(=O)[C@H](CCCNC(=N)N)NC(=O)[C@H](CCCNC(=N)N)NC(=O)[C@H](CC(N)=O)NC(=O)[C@H](CCCNC(=N)N)NC(=O)[C@H](CCCNC(=N)N)NC1=O [peptide 1] ({CH2CO}-FKFEFKFEF[PEG6]TRQARRNRRRRWRR[PEG6]C-NH2; thioether N-26) | not effectively solubilized | most of the SWCNTs were suspended | most of the SWCNTs were suspended | – | – | –
GRKKRRQRRRPPQGSGGFKFEFKFEFKFE [block copolypeptide] | – | – | – | almost completely solubilized | insufficient to solubilize 5 μg of SWCNTs | largely insoluble SWCNT aggregates

Source: patent US9364550B2, “Bioactive carbon nanotube composite functionalized with B-sheet polypeptide block copolymer, and preparation method thereof” (INDUSTRY-ACADEMIC COOPERATION FOUNDATION, YONSEI UNIVERSITY, priority 2011, dated 2016)
